Laboratory results: article PMC6993569
These are yes or no findings as the source states them, for the method shown. Binding calls can cover weak binding; strength is not graded here. Where a sequence is shown, tags or fusion partners need not be part of it. For some assays here: Binding seen in cells or lysates may run through a third protein.

T1: BGLF2-GFP (Epstein-Barr virus) (UniProt P0CK53)
T1 sequence: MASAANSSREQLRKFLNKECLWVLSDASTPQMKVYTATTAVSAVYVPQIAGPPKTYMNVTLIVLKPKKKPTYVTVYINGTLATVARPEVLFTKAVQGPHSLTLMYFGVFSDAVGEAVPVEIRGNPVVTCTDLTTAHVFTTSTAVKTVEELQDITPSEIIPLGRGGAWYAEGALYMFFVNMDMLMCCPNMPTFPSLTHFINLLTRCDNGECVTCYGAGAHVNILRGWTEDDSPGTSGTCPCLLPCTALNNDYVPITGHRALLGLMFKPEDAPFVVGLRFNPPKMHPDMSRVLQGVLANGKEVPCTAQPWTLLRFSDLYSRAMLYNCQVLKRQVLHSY

T2: GST-BGLF2 (Epstein-Barr virus) (UniProt P0CK53)
T2 sequence: T1 sequence

B1: V5-BGLF2 with the C-terminal region deleted from aa 300 to 336 (domain or fragment, UniProt P0CK53 1-300)
chain: MASAANSSREQLRKFLNKECLWVLSDASTPQMKVYTATTAVSAVYVPQIAGPPKTYMNVTLIVLKPKKKPTYVTVYINGTLATVARPEVLFTKAVQGPHSLTLMYFGVFSDAVGEAVPVEIRGNPVVTCTDLTTAHVFTTSTAVKTVEELQDITPSEIIPLGRGGAWYAEGALYMFFVNMDMLMCCPNMPTFPSLTHFINLLTRCDNGECVTCYGAGAHVNILRGWTEDDSPGTSGTCPCLLPCTALNNDYVPITGHRALLGLMFKPEDAPFVVGLRFNPPKMHPDMSRVLQGVLANGKE
B2: V5-BGLF2 with the C-terminal region deleted from aa 155 to 336 (domain or fragment, UniProt P0CK53 1-155)
chain: MASAANSSREQLRKFLNKECLWVLSDASTPQMKVYTATTAVSAVYVPQIAGPPKTYMNVTLIVLKPKKKPTYVTVYINGTLATVARPEVLFTKAVQGPHSLTLMYFGVFSDAVGEAVPVEIRGNPVVTCTDLTTAHVFTTSTAVKTVEELQDITP
B3: BGLF2-GFP (protein, UniProt P0CK53 1-336)
chain: T1 sequence
B4: V5-BGLF2 (protein, UniProt P0CK53 1-336)
chain: T1 sequence
B5: GST-BGLF2 (protein, UniProt P0CK53 1-336)
chain: T1 sequence
B6: V5-BGLF2 with the C-terminal region deleted from aa 328 to 336 (domain or fragment, UniProt P0CK53 1-328)
chain: MASAANSSREQLRKFLNKECLWVLSDASTPQMKVYTATTAVSAVYVPQIAGPPKTYMNVTLIVLKPKKKPTYVTVYINGTLATVARPEVLFTKAVQGPHSLTLMYFGVFSDAVGEAVPVEIRGNPVVTCTDLTTAHVFTTSTAVKTVEELQDITPSEIIPLGRGGAWYAEGALYMFFVNMDMLMCCPNMPTFPSLTHFINLLTRCDNGECVTCYGAGAHVNILRGWTEDDSPGTSGTCPCLLPCTALNNDYVPITGHRALLGLMFKPEDAPFVVGLRFNPPKMHPDMSRVLQGVLANGKEVPCTAQPWTLLRFSDLYSRAMLYNCQVL

Experiments:
[1] = target: T1, BGLF2-GFP (Epstein-Barr virus); experiment: co-IP; HEK293T cells cotransfected, 48 h; lysate in PBS with 1% Triton X-100; precipitated with GFP-Trap (BGLF2-GFP as bait); blot with anti-Flag
[2] = target: T2, GST-BGLF2 (Epstein-Barr virus); experiment: pull-down; His-BBLF1 mixed with GST or GST-BGLF2 in PBS with 1% NP40; glutathione (GST)-Sepharose beads, 4°C 1.5 h; washed with PBS with 1% NP40; blot with anti-His and anti-GST; both purified
[3] = target: BBLF1-GFP (Epstein-Barr virus); experiment: co-IP; 293T cells cotransfected with BBLF1-GFP and V5-BGLF2, its deletion mutants or 3KA, 48 h; precipitated with GFP-Trap (BBLF1-GFP as bait); blot with anti-GFP and anti-V5
[4] = target: BBLF1-Flag (Epstein-Barr virus); experiment: co-IP; HEK293T cells cotransfected, 48 h; lysate in PBS with 1% Triton X-100; immunoprecipitated with anti-Flag antibody (BBLF1-Flag or its mutants as bait), 4°C 1 h, protein-A/G agarose; blot with anti-GFP
[5] = target: His-BBLF1 (Epstein-Barr virus); experiment: pull-down; His-BBLF1 mixed with GST or GST-BGLF2 in PBS with 1% NP40; Ni-NTA beads, 4°C 1.5 h; washed with PBS with 1% NP40 and 0.2 M imidazole; blot with anti-His and anti-GST; both purified

Molecule | binding [3] | further results
BBLF1-Flag (Epstein-Barr virus) | – | binding [1]: binds
His-BBLF1 (Epstein-Barr virus) | – | binding [2]: binds
B1 | binds | –
B2 | binds | –
B3 | – | binding [4]: binds
B4 | binds | –
B5 | – | binding [5]: binds
B6 | binds | –
